Tests used:
[1] = White lithium grease removal testing, Gardner Straight-Line Washability Machine; details: 20 mL solvent; for Avg. # of Cycles: cycles required to achieve the percentage removed, run until approx. 70-90% of soil removed; for Avg. % Removed: white lithium grease removed, image analysis
[2] = Tar soil removal by solvent candidates; details: 10 mL/0.5 grams dried tar, shaken 10 minutes, estimated visually, FIG. 12

Compound | Avg. # of Cycles [1] | Avg. % Removed [1] | tar soil removed [2]
CCOC(=O)C(C)O (centres unmarked) [Ethyl lactate] | 47 | 64.70% | –
C=C(C)[C@H]1CC=C(C)CC1 [d-limonene] | 7 | 85.4% | –
farnesene | – | – | about 80%

Source: US10071034B2, “Solvent compositions” (Amyris, Inc., priority 2014, dated 2018)
